Reference: the supplement of paper PMC7646827
Structures can show the parent of a compound that is named as a salt. Single values are uncertain, as repeats are few or missing.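 All cells are established human bladder cancer lines, one derived from a patient-derived xenograft. A luminescent ATP assay measured viability as percent inhibition relative to vehicle across seven dilutions. The paper rates scores above 59 very active, 30–59 active, 21–29 semi-active, 9–20 low active, below 9 inactive.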

Key:
Assay in all cases: drug sensitivity score DSS3 (score 0-100); higher = more sensitive; extreme values may be limits of the assay
Conditions in all cases: culture: 3D, ultra-low attachment; treatment time: 5 days
[1] = system: UM-UC-5
[2] = system: UM-UC-17
[3] = system: TCCSUP
[4] = system: SCaBER
[5] = system: UM-UC-6
[6] = system: UM-UC-15
[7] = system: UM-UC-12
[8] = system: J82
[9] = system: 5637
[10] = system: SW780
[11] = system: UM-UC-18
[12] = system: T-24
[13] = system: UM-UC-9
[14] = system: BC8149
[15] = system: UM-UC-14
[16] = system: UM-UC-1

Row | SMILES | drug sensitivity score DSS3 [1] | drug sensitivity score DSS3 [2] | drug sensitivity score DSS3 [3] | drug sensitivity score DSS3 [4] | drug sensitivity score DSS3 [5] | drug sensitivity score DSS3 [6] | drug sensitivity score DSS3 [7] | drug sensitivity score DSS3 [8] | drug sensitivity score DSS3 [9] | drug sensitivity score DSS3 [10] | drug sensitivity score DSS3 [11] | drug sensitivity score DSS3 [12] | drug sensitivity score DSS3 [13] | drug sensitivity score DSS3 [14] | drug sensitivity score DSS3 [15] | drug sensitivity score DSS3 [16]
1 | CCNC1(C(N)=O)CCN(c2ncnc3c2nc(-c2ccccc2Cl)n3-c2ccc(Cl)cc2)CC1 (max dose 10000 nM) | 0 | 0 | 0 | 0 | 0.18 | 0 | 0 | 0 | 0.853 | 0 | 0 | 0 | 0 | 0 | 0 | –
2 | COc1cc(-c2cn[nH]c2)ccc1C(=O)Nc1ccc2c(c1)CCNCC2 (max dose 10000 nM) | 0 | 0 | 0 | – | 0 | 0 | 0 | 0 | 1.8 | 0 | 0 | – | 0 | – | 0 | –
3 | Cc1[nH]c(/C=C2\C(=O)Nc3ccc(S(=O)(=O)N(C)c4cccc(Cl)c4)cc32)c(C)c1C(=O)N1CCN(C)CC1 (max dose 10000 nM) | 22.5 | 15.7 | 25.2 | 17.9 | 10.3 | 0 | – | – | 55.2 | 20.3 | – | 0 | 20.4 | 22.6 | 15.2 | 8.67
4 | Cc1cc(CN2CCN(c3c(Br)cnc4nc(-c5ccc(N6CCN(C)CC6)cc5)[nH]c34)CC2)no1 (max dose 10000 nM) | 0 | 0.627 | 3.86 | 0 | 0.6 | 0 | 0 | 0 | 1.38 | 0 | 0.506 | 0 | 0 | 0 | 0.283 | 0.644
5 | Cc1ccc2nc(NCCN)c3ncc(C)n3c2c1 (max dose 10000 nM) | – | – | – | 0 | – | 0 | – | 0 | 0 | 0 | – | 0 | – | – | 0 | –
6 | Cn1cc(-c2ccc3nnc(C(F)(F)c4ccc5ncccc5c4)n3n2)cn1 (max dose 10000 nM) | 0 | – | 33.6 | 0 | 0 | 0 | 0 | 0 | 0 | 0 | – | 0.274 | 0 | – | – | 0
7 | O=C(NC[C@H](O)CO)c1ccncc1Nc1ccc(I)cc1F (max dose 10000 nM) | 24.4 | – | 2.3 | 30.5 | 0.692 | 12.4 | 0.971 | 0.000512 | 2.91 | 0 | 0 | 3.23 | 0 | – | 1.25 | 1.66
8 | O=C(Nc1ccc([N+](=O)[O-])cc1O)Nc1ccccc1Br (max dose 10000 nM) | – | 8.32 | 9.18 | – | 6.12 | – | 1.84 | – | 8.01 | – | – | 0 | 0 | – | 5.36 | 9.32
9 | Clc1cc2c(NC3CCCC3)nnc(-c3ccncc3)c2cc1Cl [A-196] (max dose 10000 nM) | 0 | 0 | 1.01 | 0 | 0 | 27.2 | 0 | – | 0 | 0 | 0 | 0 | 0 | 0 | 10.3 | 0
10 | Cc1csc(-c2nnc(Nc3ccc(Oc4ncccc4-c4ccnc(N)n4)cc3)c3ccccc23)c1 [AMG-900] (max dose 10000 nM) | 0 | – | 81.4 | 20.8 | 44.6 | 0 | 28.2 | 0 | 78.4 | 0 | 47.4 | – | 0.0348 | 27.1 | 57 | 52.3
11 | O=C1CN2Cc3c(ccc(Cl)c3Cl)N=C2N1 [Anagrelide HCl] (max dose 10000 nM) | 5.74 | 25.9 | 9.8 | 22.3 | 2.49 | 18.1 | 2.96 | – | 11 | – | 18.4 | 7.88 | 3.35 | 11.3 | 6.25 | –
12 | O=C(Cc1ccccc1)Nc1nnc(CCSCCc2nnc(NC(=O)Cc3ccccc3)s2)s1 [BPTES] (max dose 10000 nM) | 0.0827 | 0.103 | 1.87 | 0 | 0 | 13.7 | 0.915 | 0 | 0.228 | 0 | 0 | 0.384 | 0 | – | 0 | 0.634
13 | Cc1ccc([C@@H]2O[C@H](CO)[C@@H](O)[C@H](O)[C@H]2O)cc1Cc1ccc(-c2ccc(F)cc2)s1 [Canagliflozin hemihydrate] (max dose 10000 nM) | 0 | 0 | 0 | 0 | 4 | 0 | – | 0 | 0 | 0 | 0 | 0 | 0 | 0 | 0 | 0
14 | CN(C)/N=N/c1[nH]cnc1C(N)=O [Dacarbazine] (max dose 10000 nM) | 0 | 0 | 18.3 | 16.7 | 0.00151 | – | 0 | 0.441 | 30.4 | 0 | 0 | 0 | 0.298 | 11.1 | 6.26 | –
